Laboratory results from patent publication US20170121397A1 (PROTHENA BIOSCIENCES, published 2017).
These are yes or no findings as the source states them, for the method shown. Some binding calls cover weakened binding; strength is not graded here.

Assays:
[1] = molecular target: T1, endogenous human medin in patient aorta tissue (human); assay: immunohistochemistry on thoracic aorta samples
T1 sequence (peptide): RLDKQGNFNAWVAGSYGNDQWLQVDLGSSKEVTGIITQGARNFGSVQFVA

[2] = molecular target: T2, dense aggregated (Thioflavin S positive) medin amyloid deposits in human aorta (human); assay: immunohistochemistry on thoracic aorta samples
T2 sequence (peptide): T1 sequence (peptide)

[3] = molecular target: T1, endogenous human medin in patient aorta tissue (human); assay: immunohistochemistry on thoracic aorta samples of aneurysm patients
[4] = molecular target: T2, dense aggregated (Thioflavin S positive) medin amyloid deposits in human aorta (human); assay: as above
[5] = molecular target: T1, endogenous human medin in patient aorta tissue (human); assay: immunohistochemistry on aorta samples of Marfan syndrome patients
[6] = molecular target: T2, dense aggregated (Thioflavin S positive) medin amyloid deposits in human aorta (human); assay: as above

Measured: binding

B1: mouse monoclonal antibody 6B3 (antibody, V domains shown)
VH: QVTLKESGPGILQPSQTLSLTCSFSGFSLSTSDMGVGWIRQPSGKGLEWLAHIWWNDNKYYNIALKNRLTVSKDTSNNQVFLKIASVDTADTATYYCARLVGSWFAYWGQGTLVTVSA
VL: DIQMTQTTSSLSASLGDRVTISCRASQDISNFLSWYHQKPDGTVKLLIYYTSRLHSGVPPRFSGSGSGTDYSLTISNLEQEDIATYFCQQGKTLPPTFGGGTKLEIK
notes: Mouse hybridoma IgG raised against full-length human medin; also called m6B3; PRT6B3
binds: all assays above
